Reference: patent US20050037961A1 (BAYLOR COLLEGE OF MEDICINE, published 2005)

Legend:
[1] = target: FLAG-tag E12 (pcDNA3.1-FLAG-E12); assay: co-IP of epitope-tagged proteins from co-transfected CV1 cells, Western blot
HA-tag SRF (pCGN-SRF) = assay: as above
[2] = target: endogenous cytoplasmic α-actinin (mouse); assay: co-IP from cytoplasmic extracts of αMHC-CRP2 transgenic mouse hearts, immunoblot

binding [1]: no binding
binding (HA-tag SRF (pCGN-SRF)): binds
B1: V5-tag full length CRP2 (1-193) (protein, rat, UniProt Q62908 1-193, looked up, not shown: small tags and cut ends)
chain: MPVWGGGNKCGACGRTVYHAEEVQCDGRTFHRCCFLCMVCRKNLDSTTVAIHDEEIYCKSCYGKKYGPKGYGYGQGAGTLNMDRGERLGIKPESAQPHRPTTNPNTSKFAQKYGGAEKCSRCGDSVYAAEKIIGAGKPWHKNCFRCAKCGKSLESTTLTEKEGEIYCKGCYAKNFGPKGFGYGQGAGALVHAQ

binding [2]: binds
B2: FLAG-tagged rat CRP2 (αMHC-CRP2 transgene) (other, UniProt Q62908 1-193, looked up, not shown: small tags and cut ends)
chain: B1 chain
notes: Expressed in cardiomyocytes of transgenic mice and assayed in nuclear and cytoplasmic heart extracts; also called FLAG-CRP2; FLAG-tagged CRP2

Results are given in words; binding and its absence hold for the method and conditions named. Binding seen in cells or lysates may run through a third protein. For part of these data: Binding calls can cover weak binding; strength is not graded here. Where a sequence is shown, tags or fusion partners need not be part of it. Each block holds one binder with its values, some of them ahead of it.
